Reference: doi:10.1101/2025.04.19.649636
No constants are given. Whether binding was seen depends on the method and setting. In cells and extracts the contact can be indirect. Here binding means that the protein was enriched with, or labelled near, the bait; the list need not be complete.

Sequences of proteins named here, by UniProt entry; tags and fusion partners are left off. Residues count along the entry.
UniProt Q96CG8, residues 31-243: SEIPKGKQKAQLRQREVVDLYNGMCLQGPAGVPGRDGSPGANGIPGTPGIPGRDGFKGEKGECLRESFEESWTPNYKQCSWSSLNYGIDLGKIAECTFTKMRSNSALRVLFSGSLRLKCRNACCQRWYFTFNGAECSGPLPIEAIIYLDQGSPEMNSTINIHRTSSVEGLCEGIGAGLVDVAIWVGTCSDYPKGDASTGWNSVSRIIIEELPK

Biological target: recombinant human CTHRC1 Protein (human) (UniProt Q96CG8)
Assay: affinity purification with mass spectrometry

B1: ADAM metallopeptidase domain 9 (ADAM9) of MOVAS cells (protein, UniProt Q61072 30-845)
chain: GRPDLEQTVHLSSYEIITPWRLTRERREALGPSSQQISYVIQAQGKQHIIHLERNTDLLPNDFVVYTYDKEGSLLSDHPNVQSHCHYRGYVEGVQNSAVAVSACFGLRGLLHLENASFGIEPLHNSSHFEHIFYPMDGIHQEPLRCGVSNRDTEKEGTQGDEEEHPSVTQLLRRRRAVLPQTRYVELFIVVDKERYDMMGRNQTAVREEMIRLANYLDSMYIMLNIRIVLVGLEIWTDRNPINIIGGAGDVLGNFVQWREKFLITRWRHDSAQLVLKKGFGGTAGMAFVGTVCSRSHAGGINVFGQITVETFASIVAHELGHNLGMNHDDGRECFCGAKSCIMNSGASGSRNFSSCSAEDFEKLTLNKGGSCLLNIPKPDEAYSAPSCGNKLVDPGEECDCGTAKECEVDPCCEGSTCKLKSFAECAYGDCCKDCQFLPGGSMCRGKTSECDVPEYCNGSSQFCPPDVFIQNGYPCQNSKAYCYNGMCQYYDAQCQVIFGSKAKAAPRDCFIEVNSKGDRFGNCGFSGSEYKKCATGNALCGKLQCENVQDMPVFGIVPAIIQTPSRGTKCWGVDFQLGSDVPDPGMVNEGTKCDAGKICRNFQCVNASVLNYDCDIQGKCHGHGVCNSNKNCHCEDGWAPPHCDTKGYGGSVDSGPTYNAKSTALRDGLLVFFFLIVPLVAAAIFLFIKRDELRKTFRKKRSQMSDGRNQANVSRQPGDPSISRPPGGPNVSRPPGGPGVSRPPGGPGVSRPPGGPGVSRPPPGHGNRFPVPTYAAKQPAQFPSRPPPPQPKISSQGNLIPARPAPAPPLYSSLT
With B1 the binding was “binds”.
